# Measurements published in PMC5711494, “Sterol methyltransferase a target for anti-amoeba therapy: towards transition state analog and suicide substrate drug design” (Journal of Lipid Research, 2017).
# System: Acanthamoeba castellanii trophozoites sterol biosynthesis
# Assay: Sterol composition of treated Ac trophozoites (GC/MS)
# Assay type: cell-based
# Procedure: Amoeba and HEK cells were harvested at one or more points during growth in the presence and absence of steroidal inhibitor and azole at IC50 or MACs of the inhibitor or at 40 µM for HEK cells. Cell pellets were split with an internal standard of known amounts of 5α-cholestane added to one of the cell pellets for determination of sterol amounts in cells. Cells were saponified directly in aqueous methanolic potassium hydroxide at the reflux temperature for 1 h, which yielded total sterol (free plus sterol released from ester bonds). The resulting neutral lipids obtained by dilution with water and extraction with hexane (Fisher) were analyzed by GC/MS or HPLC-equipped with a diode array detector against cholesterol as a chromatographic reference. GC and HPLC retention times of sterols were compared with those obtained from authentic standards in our steroid collection ([18]–[22]). To determine the trophozoite sterol metabolome, GC/MS analysis of cell pellet nonsaponfiables was typically carried out using control cultures incubated in 5 ml medium in 25 ml T-flasks inoculated with 1 × 10^4 trophozoites/ml and cultured for 72 h. To generate significant cell pellets for sterol analysis of treated cells, trophozoites were cultured in 10 ml medium in 25 ml T-flasks inoculated with 1 × 10^5 cells/ml and grown for 48 h.
smiles,measurement,setting,value
"CC(CCC=C1CC1)C1CC[C@@]2(C)C3=C(CCC12C)C1(C)CCC(O)C(C)(C)C1CC3 (some centres unmarked) [DHL, 26,27-dehydrolanosterol]",DHL and 26-methyl DHL in treated cells,"15 µM, 48 h harvest",1 % total sterol
same,inhibitor detected in treated cells by GC/MS,DHL treatment,~0.5 % total sterol
